PubChem BioAssay AID1159578, Peter MacCallum Cancer Centre, 2015
Here is an unselected part of about 18,000 reagents tested. About 1,030 of all reagents (5.7%) count as active. 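Inactive calls also include pools with fewer than 3300 nuclei, whose migration was not assessed.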 Raw values vary from plate to plate and are shown uncorrected. Further read-outs or replicates are left out here.

Assay: 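Genome-wide hunt for genes controlling movement of lymphatic endothelial cells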 (primary screen)
System: human lymphatic endothelial cells
Reagent: siRNA pool against human genes, 40 nM
Timing: 48 h after transfection
Detection: 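Cells stained with dye and imaged after a scratch; covered wound area and nuclei counted, duplicates averaged, migration set against mock wells and turned into a robust z-score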
Reading the numbers: migration robust z-score: higher = faster migration into the scratch; nuclei per well: higher = more cells in the well
Rule for the call: 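Migration changed when robust z exceeds 2 or falls below -2 and mean nuclei number is at least 3300; otherwise not called changed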
Calls: active = migration changed; inactive = no migration change, or too few cells

For XPNPEP3 (GeneID 63929), what was measured?
migration robust z-score: -0.39; nuclei per well, duplicate mean: 5214; outcome: inactive

For RTP3 (GeneID 83597), what was measured?
migration robust z-score: -0.82; nuclei per well, duplicate mean: 5586; outcome: inactive

Which result is listed for NCKIPSD (GeneID 51517)?
migration robust z-score: -1.45; nuclei per well, duplicate mean: 5259; outcome: inactive

What did the screen give for OR2T6 (GeneID 254879)?
migration robust z-score: -1.05; nuclei per well, duplicate mean: 6648; outcome: inactive

Which result is listed for NEU3 (GeneID 10825)?
migration robust z-score: 0.44; nuclei per well, duplicate mean: 5242; outcome: inactive

What did the screen give for MIXL1 (GeneID 83881)?
migration robust z-score: 0.49; nuclei per well, duplicate mean: 6338; outcome: inactive

What is on record for COL21A1 (GeneID 81578)?
migration robust z-score: -0.02; nuclei per well, duplicate mean: 5376; outcome: inactive

What is on record for FMC1 (GeneID 154791)?
migration robust z-score: -2.4; nuclei per well, duplicate mean: 4826; outcome: active

What did the screen give for USP51 (GeneID 158880)?
migration robust z-score: -0.02; nuclei per well, duplicate mean: 6114; outcome: inactive

What is on record for EEF1AKMT2 (GeneID 399818)?
migration robust z-score: 1.05; nuclei per well, duplicate mean: 5884; outcome: inactive

How did the screen score PCDH18 (GeneID 54510)?
migration robust z-score: -0.21; nuclei per well, duplicate mean: 5795; outcome: inactive

With FPR2 (GeneID 2358), what was measured?
migration robust z-score: 0.88; nuclei per well, duplicate mean: 4730; outcome: inactive

What is on record for TMEM109 (GeneID 79073)?
migration robust z-score: 0.8; nuclei per well, duplicate mean: 5106; outcome: inactive

For RAB8A (GeneID 4218), what does the deposit list?
migration robust z-score: -0.91; nuclei per well, duplicate mean: 4487; outcome: inactive
